Test results from article PMC10575921 (Nature Communications, 2023).

Tested on: human peripheral blood mononuclear cells (PBMCs)
Assay: cells
Conditions: PBMC

**Q.** With `CN[C@@H]1C[C@H]2O[C@@](C)([C@@H]1OC)n1c3ccccc3c3c4c(c5c6ccccc6n2c5c31)C(=O)NC4` [staurosporine] as the compound, how does the IC50 read?
**A.** Its IC50 is 550 nM.
